Results: publication doi:10.1101/2024.08.06.606614 (bioRxiv, 2024)
These are yes or no findings as the source states them, for the method shown. Binding calls can cover weak binding; strength is not graded here.

Target: T1, Ankyrin repeat and MYND domain-containing protein 1 (ANKMY1) (mouse (endogenous in mouse sperm)) (UniProt Q8C0W1)
T1 sequence: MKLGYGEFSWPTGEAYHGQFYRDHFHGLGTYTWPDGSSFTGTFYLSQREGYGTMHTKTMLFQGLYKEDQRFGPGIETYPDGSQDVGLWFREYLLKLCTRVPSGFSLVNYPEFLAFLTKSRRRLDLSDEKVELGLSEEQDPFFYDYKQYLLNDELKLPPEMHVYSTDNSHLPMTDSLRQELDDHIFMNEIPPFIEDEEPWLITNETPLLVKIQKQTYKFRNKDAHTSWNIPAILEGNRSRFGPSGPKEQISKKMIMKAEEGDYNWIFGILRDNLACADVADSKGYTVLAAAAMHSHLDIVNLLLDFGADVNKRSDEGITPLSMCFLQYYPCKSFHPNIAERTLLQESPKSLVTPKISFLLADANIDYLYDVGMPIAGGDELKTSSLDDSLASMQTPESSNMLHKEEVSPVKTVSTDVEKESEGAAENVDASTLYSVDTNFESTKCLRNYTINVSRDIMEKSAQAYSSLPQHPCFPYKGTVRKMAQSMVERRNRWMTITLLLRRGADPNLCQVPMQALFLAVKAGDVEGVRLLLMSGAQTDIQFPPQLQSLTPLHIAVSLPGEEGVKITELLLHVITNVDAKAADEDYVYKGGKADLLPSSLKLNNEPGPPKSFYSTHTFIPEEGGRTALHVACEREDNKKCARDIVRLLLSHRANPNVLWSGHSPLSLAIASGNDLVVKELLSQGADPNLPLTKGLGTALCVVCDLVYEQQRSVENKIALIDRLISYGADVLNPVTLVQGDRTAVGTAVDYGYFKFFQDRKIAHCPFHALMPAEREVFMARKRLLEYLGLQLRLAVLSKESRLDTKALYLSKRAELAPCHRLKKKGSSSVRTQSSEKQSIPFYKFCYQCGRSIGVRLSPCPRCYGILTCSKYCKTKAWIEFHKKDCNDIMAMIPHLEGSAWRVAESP
Assay: cryo-EM structure

Substance: CCDC180 (mouse (endogenous in mouse sperm))
- binding: binds
